# According to publication PMC12446626:
# Target: T1, CDC50A-FLAG (Gallus gallus CDC50A, FLAG-tagged) (Gallus gallus) (UniProt Q5F362)
# T1 sequence: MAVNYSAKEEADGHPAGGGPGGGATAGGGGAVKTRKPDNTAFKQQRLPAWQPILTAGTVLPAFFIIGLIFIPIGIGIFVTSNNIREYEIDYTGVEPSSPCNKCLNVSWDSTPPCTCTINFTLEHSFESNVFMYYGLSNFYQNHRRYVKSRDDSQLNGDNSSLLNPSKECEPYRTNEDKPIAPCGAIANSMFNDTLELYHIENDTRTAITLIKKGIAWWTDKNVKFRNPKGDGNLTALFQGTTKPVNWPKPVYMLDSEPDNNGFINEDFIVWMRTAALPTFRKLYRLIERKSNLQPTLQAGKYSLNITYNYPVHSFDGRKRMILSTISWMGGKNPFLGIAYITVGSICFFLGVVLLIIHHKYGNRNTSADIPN
# Test: co-IP
substance,measurement,value
"ATP11c-HA (Gallus gallus phospholipid flippase ATP11c, HA-tagged)",binding,binds

# No constants are given. Whether binding was seen depends on the method and setting. Binding seen in cells or lysates may run through a third protein. Binding can be weak; no strength is given. Where a sequence is shown, tags or fusion partners need not be part of it.
